Results deposited as PubChem BioAssay AID1159578 (Peter MacCallum Cancer Centre, 2015).
Aim: 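siRNA pools altering how lymphatic endothelial cells close a scratch wound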 (primary screen). Cell system: human lymphatic endothelial cells. Reagents: siRNA pool against human genes, 40 nM. Timing: 48 h after transfection. Read-out: 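High-content imaging of dye-stained cells in a scratch assay measures filled wound area and nuclei per well; duplicate means given as ratio to mock and robust z-score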. Reading the numbers: migration robust z-score: higher = faster migration into the scratch; migration relative to mock: higher = more scratch area covered than mock; nuclei per well: higher = more cells in the well. Rule for the call: 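Pools averaging fewer than 3300 nuclei are never called; remaining pools count as changed when migration robust z lies outside -2 to 2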. Meaning of the calls: active = migration changed; inactive = no migration change, or too few cells.
The deposit covers about 18,000 reagents; shown is a random part of them. About 1,030 of all reagents (5.7%) count as active. 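Inactive calls also include pools with fewer than 3300 nuclei, whose migration was not assessed.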 Raw values vary from plate to plate and are shown uncorrected. Unmarked entries are inactive. The numbers tell different reagents against one gene apart.

The opening 7 entries as a preview:
no.	gene	reagent	migration robust z-score	migration class with cell-count check	migration relative to mock	nuclei per well, duplicate mean
1	CLEC17A (C-type lectin domain containing 17A)	1	-2	migration z between -2 and 2; enough cells	0.36	5340
2	TEX11 (testis expressed 11)	1	-1.55	migration z between -2 and 2; enough cells	0.48	5290
3	OR5H15 (olfactory receptor family 5 subfamily H member 15)	1	0.24	migration z between -2 and 2; enough cells	0.94	5518
4	CASP5 (caspase 5)	1	1.27	migration z between -2 and 2; enough cells	1.05	4932
5	KLHL20 (kelch like family member 20)	1	0.05	migration z between -2 and 2; enough cells	0.89	5700
6	PAFAH2 (platelet activating factor acetylhydrolase 2)	1	-1.34	migration z between -2 and 2; enough cells	0.54	6382
7	PIWIL1 (piwi like RNA-mediated gene silencing 1)	1	0.88	migration z between -2 and 2; enough cells	0.98	6177

The listing, from the first entry:
no.	gene	reagent	migration robust z-score	migration class with cell-count check	migration relative to mock	nuclei per well, duplicate mean
1	CLEC17A (C-type lectin domain containing 17A)	1	-2	migration z between -2 and 2; enough cells	0.36	5340
2	TEX11 (testis expressed 11)	1	-1.55	migration z between -2 and 2; enough cells	0.48	5290
3	OR5H15 (olfactory receptor family 5 subfamily H member 15)	1	0.24	migration z between -2 and 2; enough cells	0.94	5518
4	CASP5 (caspase 5)	1	1.27	migration z between -2 and 2; enough cells	1.05	4932
5	KLHL20 (kelch like family member 20)	1	0.05	migration z between -2 and 2; enough cells	0.89	5700
6	PAFAH2 (platelet activating factor acetylhydrolase 2)	1	-1.34	migration z between -2 and 2; enough cells	0.54	6382
7	PIWIL1 (piwi like RNA-mediated gene silencing 1)	1	0.88	migration z between -2 and 2; enough cells	0.98	6177
8	CNNM1	1	-0.62	migration z between -2 and 2; enough cells	0.72	6154
9	ZNF345 (zinc finger protein 345)	1	0.78	migration z between -2 and 2; enough cells	1.08	5148
10	DEFB131A (defensin beta 131A)	1	-0.15	migration z between -2 and 2; enough cells	0.85	6732
11	CASTOR3P (CASTOR family member 3, pseudogene)	1	0.13	migration z between -2 and 2; enough cells	0.92	4815
12	ZNF674 (zinc finger protein 674)	1	-1.41	migration z between -2 and 2; enough cells	0.52	5838
13	CLTC (clathrin heavy chain)	1	-0.94	migration z between -2 and 2; enough cells	0.64	6046
14	TCF25 (TCF25 ribosome quality control complex subunit)	1	0.1	migration z between -2 and 2; enough cells	0.92	6045
15	LRP11 (LDL receptor related protein 11)	1	0.67	migration z between -2 and 2; enough cells	1.05	7254
16	SMARCC1 (SWI/SNF related BAF chromatin remodeling complex subunit C1)	1	0.52	migration z between -2 and 2; enough cells	0.9	6482
17	TMEM33 (transmembrane protein 33)	1	1.41	migration z between -2 and 2; enough cells	1.25	4602
18	FLOT1 (flotillin 1)	1	0.86	migration z between -2 and 2; enough cells	1.11	6203
19	SCRG1 (stimulator of chondrogenesis 1)	1	-0.6	migration z between -2 and 2; enough cells	0.73	5601
20	MYH2 (myosin heavy chain 2)	1	-0.13	migration z between -2 and 2; enough cells	0.78	6608
21	NAB2 (NGFI-A binding protein 2)	1	-1.92	migration z between -2 and 2; enough cells	0.44	6504
22	ASB2 (ankyrin repeat and SOCS box containing 2)	1	0.21	migration z between -2 and 2; enough cells	0.85	5336
23	TUBA1A (tubulin alpha 1a)	1	-0.89	migration z between -2 and 2; enough cells	0.64	5540
24	RMP64 (ribonuclease MRP subunit p64)	1	-0.56	migration z between -2 and 2; enough cells	0.74	3392
25	SPTB (spectrin beta, erythrocytic)	1	-0.31	migration z between -2 and 2; enough cells	0.8	6253
26	TCEAL5 (transcription elongation factor A like 5)	1	-0.62	migration z between -2 and 2; enough cells	0.73	5954
27	HEATR4 (HEAT repeat containing 4)	1	0.12	migration z between -2 and 2; enough cells	0.91	5632
28	CRISP1 (cysteine rich secretory protein 1)	1	-0.78	migration z between -2 and 2; enough cells	0.68	5643
29	PPP1R14C (protein phosphatase 1 regulatory inhibitor subunit 14C)	1	0.64	migration z between -2 and 2; enough cells	1.05	5801
30	ERCC6L2 (ERCC excision repair 6 like 2)	1	0.82	migration z between -2 and 2; enough cells	1.09	5832
31	ERCC6L2 (ERCC excision repair 6 like 2)	2	0.62	migration z between -2 and 2; enough cells	1.04	4927
32	INMT (indolethylamine N-methyltransferase)	1	-1.38	migration z between -2 and 2; enough cells	0.54	4969
33	DDIT3 (DNA damage inducible transcript 3)	1	-1.71	migration z between -2 and 2; enough cells	0.48	4762
34	KIR2DS3	1	1.45	migration z between -2 and 2; enough cells	1.26	5756
35	CORO2A (coronin 2A)	1	0	migration z between -2 and 2; enough cells	0.89	5430
36	FAM3C (FAM3 metabolism regulating signaling molecule C)	1	-0.64	migration z between -2 and 2; enough cells	0.72	5441
37	PGM5 (phosphoglucomutase 5)	1	-1.38	migration z between -2 and 2; enough cells	0.54	5240
38	GPR34 (G protein-coupled receptor 34)	1	0.7	migration z between -2 and 2; enough cells	0.94	4461
39	TMPRSS11F (transmembrane serine protease 11F)	1	0.18	migration z between -2 and 2; enough cells	0.84	5382
40	KNTC1 (kinetochore associated 1)	1	-0.74	migration z between -2 and 2; enough cells	0.7	5569
41	ELOA2 (elongin A2)	1	-1.99	migration z between -2 and 2; enough cells	0.37	4368
42	ZSWIM3 (zinc finger SWIM-type containing 3)	1	-0.82	migration z between -2 and 2; enough cells	0.68	5066
43	CCNL1 (cyclin L1)	1	-0.1	migration z between -2 and 2; enough cells	0.78	5184
44	ILKAP (ILK associated serine/threonine phosphatase)	1	-0.31	migration z between -2 and 2; enough cells	0.74	5357
45	VAMP3 (vesicle associated membrane protein 3)	1	-0.22	migration z between -2 and 2; enough cells	0.83	5730
46	SH3RF2 (SH3 domain containing ring finger 2)	1	0.57	migration z between -2 and 2; enough cells	0.92	5506
47	COQ8B (coenzyme Q8B)	1	-0.73	migration z between -2 and 2; enough cells	0.66	5094
48	ITGAX (integrin subunit alpha X)	1	0.36	migration z between -2 and 2; enough cells	0.88	5843
49	LRRC75B (leucine rich repeat containing 75B)	1	-0.96	migration z between -2 and 2; enough cells	0.64	5444
50	PTP4A2 (protein tyrosine phosphatase 4A2)	1	-1.29	migration z between -2 and 2; enough cells	0.55	4628
51	IFIH1 (interferon induced with helicase C domain 1)	1	0.05	migration z between -2 and 2; enough cells	0.82	4830
52	TMEM132D (transmembrane protein 132D)	1	-0.45	migration z between -2 and 2; enough cells	0.76	5729
53	KRIT1 (KRIT1 ankyrin repeat containing)	1	0.16	migration z between -2 and 2; enough cells	0.92	6460
54	TAFA4 (TAFA chemokine like family member 4)	1	-0.22	migration z between -2 and 2; enough cells	0.82	6382
55	SLC22A6	1	-1.89	migration z between -2 and 2; enough cells	0.44	6041
56	EPS8 (EGFR pathway substrate 8, signaling adaptor)	1	0.83	migration z between -2 and 2; enough cells	0.97	5842
57	FSAF1 (40S small subunit processome assembly factor 1)	1	-0.41	migration z between -2 and 2; enough cells	0.78	5466
